Test results: PubChem BioAssay AID493014 (National Center for Advancing Translational Sciences (NCATS), 2011)
Some of the results follow. These are further read-outs of the screen, such as a control signal, another cell line or another target. No call is given for them. Most of these compounds were active or inconclusive in the main read-out, so they are no random draw. Words in brackets tell the shape of the fitted curve; partial curves, single points and poor fits give uncertain potencies.

test: qHTS Assay to Find Inhibitors of Chronic Active B-Cell Receptor Signaling; conditions: ABC-DLBCL IkBa-CBG/CBR reporter, luminescence ratio (green luciferase fused to IkBa over red control in TMD8 lymphoma cells), 4 h; measured here: CBR red luminescence, cell number
Summary of the method: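 Cell line TMD8 (human ABC DLBCL), stably expressing tet-inducible CBG68-IkBa fusion and CBR; IMDM/0.5% FBS; cpd up to 46 uM; dox induction, 4 h, 37C/5% CO2; dual luminescence; green/red ratio; MG132 control.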

| Structure (SMILES) | AC50 |
| --- | --- |
| N#Cc1c(-c2ccc(Cl)cc2)c2c([nH]c1=S)CCCC2 | 6.31 µM [rising, single point] |
| CCCn1c(=O)c2c(nc3n2CCCN3CCc2ccc(OC)c(OC)c2)n(C)c1=O | 7.08 µM [falling, partial curve] |
| CC(/C=N/NC(=O)c1nn(C)c(C)c1Br)=C\c1ccccc1 | 0.731 µM [rising, full curve] |
| O=C(COc1ccc(Br)cc1)Nc1ccncc1 | 6.51 µM [falling, single point] |
| CCN(CC(=O)NCc1ccc(Cl)cc1)C(=O)c1cnc(Cl)c(Cl)c1 | 35.5 µM [falling, partial curve, poor fit] |
| C=CCn1c(SCC(=O)c2[nH]c(C)c(C(=O)OCC)c2C)nc2scc(-c3ccc(OC)cc3)c2c1=O | 3.26 µM [rising, full curve, poor fit] |
| O=C1NC2(CCCc3ccccc32)C(=O)N1Cc1nnc(-c2ccccc2Br)o1 (stereo not drawn) | 0.1 µM [falling, full curve, poor fit] |
| CC1CCC/C(=N\NC(=O)COc2ccccc2Cl)C1 (stereo not drawn) | 29.1 µM [rising, single point] |
| Nc1nc(CCl)nc(Nc2ccc3ccccc3c2)n1 | 35.5 µM [falling, single point] |
| CCOc1ccc(S(=O)(=O)N(C)c2ccc(OCC(=O)NCc3ccco3)cc2)cc1 | 5.8 µM [rising, partial curve, poor fit] |
| COc1ccc(OCCN(C)Cc2ccccc2)cc1 | 6.51 µM [rising, single point] |
| CCOC(=O)c1nc(NCc2ccccc2C)c2ccccc2n1 | 35.5 µM [rising, partial curve, poor fit] |
| CS(=O)(=O)c1ccc(NC(=O)c2cccc(S(=O)(=O)N3CCN(Cc4ccccc4)CC3)c2)cc1 | 3.55 µM [falling, partial curve, poor fit] |
| Cc1cc(C(=O)NCCC2=CCCCC2)c(C)o1 | 6.51 µM [falling, full curve, poor fit] |
| Fc1ccc(OCc2nnc(-c3ccccc3Br)o2)c(Cl)c1 | 5.01 µM [rising, full curve, poor fit] |
| CC(C)CNC(=O)/C(C#N)=C1\N=C(NC(=O)c2ccco2)c2ccccc21 | 15.8 µM [falling, single point] |
| CC1CCCC(C)N1C(=O)c1cc(-c2cccs2)on1 (stereo not drawn) | 23.1 µM [rising, partial curve, poor fit] |
| CC(C)NC(=O)Nc1ccc(Br)cc1Cl | 35.5 µM [rising, partial curve, poor fit] |

A draw from above in order of count of non-hydrogen atoms, ascending:

| Structure (SMILES) | AC50 |
| --- | --- |
| Cc1cc(C(=O)NCCC2=CCCCC2)c(C)o1 | 6.51 µM [falling, full curve, poor fit] |
| N#Cc1c(-c2ccc(Cl)cc2)c2c([nH]c1=S)CCCC2 | 6.31 µM [rising, single point] |
| CS(=O)(=O)c1ccc(NC(=O)c2cccc(S(=O)(=O)N3CCN(Cc4ccccc4)CC3)c2)cc1 | 3.55 µM [falling, partial curve, poor fit] |
